# Data as given in patent US20220135564A1, “DEUTERATED MITRAGYNINE ANALOGS AS SAFER OPIOID MODULATORS IN THE MITRAGYNINE CLASS” (The Trustees of Columbia University in the City of New York, priority 2019, published 2022).
# Structures can show the parent of a compound that is named as a salt. At least one compound was matched to its structure with a doubt left.
# Assay: Metabolic profiling of DHM in mouse liver S9 fraction (MS9)
# Type: in vitro ADME
# Conditions: DHM 10 μM, MS9, 60-min incubation, positive ion mode
# Method: Analytical System. The metabolic profiling of DHM in mouse liver S9 fraction was performed using high performance liquid chromatography-tandem mass spectrometry (HPLC-MS/MS). A Shimadzu HPLC system comprising 2 isocratic pumps (LC-10ADvp), an autosampler (SIL-30ACMP), a system controller (CBM-20A), a high-pressure switching valve (FCV-20AH6), and a degasser (DGU-14A) was used for separations. Mass spectrometric analyses were performed using an API 4000 QTRAP mass spectrometer from Applied Biosystems/MDS Sciex (AB Sciex) with Turbo V ion source and TurboIonspray interface. Data acquisition and system control was performed using Analyst 1.6.3 software from AB Sciex.
# Liver S9 Incubations. Liver S9 fraction pooled from male CD-1 mice was used. Incubations were carried out in 1.1 mL microtubes (in 96-well format plate) in aliquots of 40 μL each (2 for each time point; 0, 6, 16, 30, and 60 min). […] Control incubations were performed replacing the cofactor system with phosphate buffer. Test compound DHM (10 μM, final solvent concentration 1.6%) was incubated with S9 at 37° C., shaking at 100 rpm. Incubations were performed in duplicate. Five time points over 60 minutes (0, 6, 16, 30, and 60 min) were analyzed. […] Supernatants (two time points, 0 and 60 min) were analyzed for remaining parent compound and putative metabolites by HPLC-MS/MS.
# General Strategy for Identification of Metabolites. […]
smiles,measurement,value
"CC[C@@H]1C[N+]2=C(C[C@@H]1/C(=C\OC)C(=O)OC)c1[nH]c3cccc(OC)c3c1CC2 [DHM, 3-Dehydromitragynine hydrochloride]",Found in mouse S9 liver fraction,+
